Measured values as given in the supplement of paper PMC12067093, “Discovery and optimisation of a covalent ligand for TRIM25 and its application to targeted protein ubiquitination” (Chemical Science, 2025).
Some of the results follow.

Compound: CC1Cc2ccccc2N1C(=O)C1CCCN(C1)C(=O)CCl (mixture of isomers) [TRIM25 ligand 11 (diastereomer mixture)]
Assay: probe-labelled cysteine peptide fold change vs DMSO (competition) (log2 fold change); higher = less target engagement (more negative = stronger competition)
Conditions: THP-1, incubation time: 4 h
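Note: competitive chemoproteomic profiling in live THP-1 cells with an iodoacetamide desthiobiotin (IA-DTB) probe, comparing probe-labelled peptide intensities in compound-treated cells against DMSO-treated controls.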

Target | probe-labelled cysteine peptide fold change (10 µM) | probe-labelled cysteine peptide fold change (50 µM)
MYO9B_Q13459_234_RVNQCIVISGESGSGK (UniProt Q13459) | 0.0631 | 0.0824
NAA40_Q86UY6_59_NGLNVSIECK (UniProt Q86UY6) | -0.0605 | -0.0976
MYH9_P35579_917_KQELEEICHDLEAR (UniProt P35579) | 0.00836 | 0.00314
NCAM1_P13591_287_NDEAEYICIAENK (UniProt P13591) | 0.111 | 0.272
MYSM1_Q5VVJ2_564_SSFDPFQLIPCNFFSEEK (UniProt Q5VVJ2) | 0.0331 | 0.0254
MYO1G_B0I1T2_942_GQDDLVVCLHR (UniProt B0I1T2) | -0.214 | 0.0648
MYOF_Q9NZM1_1167_DSFSDPYAHICFLHR (UniProt Q9NZM1) | 0.214 | 0.0534
MYO1F_O00160_101+105_NMLIDCENQCVIISGESGAGK (UniProt O00160) | 0.288 | 0.0713
MYO1G_B0I1T2_965_VGELVGVLAAHCQGEGR (UniProt B0I1T2) | 0.0375 | -0.0379
NCAPD3_P42695_867_YIFTLGDIAQLCPAR (UniProt P42695) | 0.0327 | 0.0499
MYOF_Q9NZM1_1553_ELPDSVPQECTVR (UniProt Q9NZM1) | 0.0826 | 0.058
NCBP1_Q09161_409_LDTMNTTCVDR (UniProt Q09161) | 0.242 | 0.223
NARS_O43776_511_YGTCPHGGYGLGLER (UniProt O43776) | -0.221 | 0.0274
NBAS_A2RRP1_1634_QLHCYNER (UniProt A2RRP1) | 0.000992 | -0.0554
MYOF_Q9NZM1_1660_FGSHCGIPEEYCVSGVNTWR (UniProt Q9NZM1) | 0.0867 | 0.145
NAA25_Q14CX7_365_KFGDKPCCFTDLK (UniProt Q14CX7) | 0.0134 | -0.0607
MYOF_Q9NZM1_969_AASPSELTCPPGWEWEDDAWSYDINR (UniProt Q9NZM1) | 0.28 | 0.0098
NAA30_Q147X3_195_LLSSSLTADCSLR (UniProt Q147X3) | 0.0453 | -0.262

Three entries from above, with each value named.
MYO1G_B0I1T2_965_VGELVGVLAAHCQGEGR (UniProt B0I1T2)
  probe-labelled cysteine peptide fold change (10 µM) = 0.0375; probe-labelled cysteine peptide fold change (50 µM) = -0.0379
NCAPD3_P42695_867_YIFTLGDIAQLCPAR (UniProt P42695)
  probe-labelled cysteine peptide fold change (10 µM) = 0.0327; probe-labelled cysteine peptide fold change (50 µM) = 0.0499
MYOF_Q9NZM1_1553_ELPDSVPQECTVR (UniProt Q9NZM1)
  probe-labelled cysteine peptide fold change (10 µM) = 0.0826; probe-labelled cysteine peptide fold change (50 µM) = 0.058

Further records follow.

Target | probe-labelled cysteine peptide fold change (10 µM) | probe-labelled cysteine peptide fold change (50 µM)
NCAPH2_Q6IBW4_535_FPQLNEWCPFAELVAGQPAFEVCR (UniProt Q6IBW4) | -0.0435 | -0.0913
NADK2_Q4G0N4_193_LKPVIGVNTDPERSEGHLCLPVR (UniProt Q4G0N4) | -0.0696 | -0.0485
NANS_Q9NR45_46_ECGADCAK (UniProt Q9NR45) | 0.167 | 0.0836
NCAPD3_P42695_588_EDLWILQDQCR (UniProt P42695) | 0.509 | 0.0819
NBEAL2_Q6ZNJ1_1619_REEACYVLSK (UniProt Q6ZNJ1) | 0.0423 | 0.00413
NAXE_Q8NCW5_127_SPPTVLVICGPGNNGGDGLVCAR (UniProt Q8NCW5) | 0.256 | 0.453
NCBP1_Q09161_332_KTCAAQLVSYPGK (UniProt Q09161) | -0.271 | -0.324
NAIP_Q13075_124_FHPDCGFLLNK (UniProt Q13075) | -0.0984 | 0.0151
NAA25_Q14CX7_339_SQGCNDEYK (UniProt Q14CX7) | 0.0881 | -0.0602
NAIP_Q13075_1335_HFTECIK (UniProt Q13075) | 0.077 | 0.0448
N4BP2_Q86UW6_1096_STFVEESELTSADESENLNILCK (UniProt Q86UW6) | -0.188 | -0.112
N4BP1_O75113_89_DMHCIFVGAESLFLK (UniProt O75113) | -0.0457 | -0.0333
NCAPH_Q15003_418_TMCPLLSMKPGEYSYFSPR (UniProt Q15003) | -0.158 | -0.448
NBR1_Q14596_505_TDDLTCQQEETFLLAK (UniProt Q14596) | 0.0872 | 0.127
NCBP2_P52298_84_TACGFCFVEYYSR (UniProt P52298) | -0.0379 | 0.0446
NBEAL2_Q6ZNJ1_1491_GQVFSVLTQLGASATLVRPPDCIK (UniProt Q6ZNJ1) | -0.0164 | -0.0673
NAPA_P54920_103_KADPQEAINCLMR (UniProt P54920) | 0.0661 | 0.0556
